Measurements from PMC10520482.

By UniProt entry, the sequences of proteins in these tests, tags left out. Where a name states a change or a piece, a line headed by the entry shows the natural chain unless it says otherwise.
UniProt Q9NXG0: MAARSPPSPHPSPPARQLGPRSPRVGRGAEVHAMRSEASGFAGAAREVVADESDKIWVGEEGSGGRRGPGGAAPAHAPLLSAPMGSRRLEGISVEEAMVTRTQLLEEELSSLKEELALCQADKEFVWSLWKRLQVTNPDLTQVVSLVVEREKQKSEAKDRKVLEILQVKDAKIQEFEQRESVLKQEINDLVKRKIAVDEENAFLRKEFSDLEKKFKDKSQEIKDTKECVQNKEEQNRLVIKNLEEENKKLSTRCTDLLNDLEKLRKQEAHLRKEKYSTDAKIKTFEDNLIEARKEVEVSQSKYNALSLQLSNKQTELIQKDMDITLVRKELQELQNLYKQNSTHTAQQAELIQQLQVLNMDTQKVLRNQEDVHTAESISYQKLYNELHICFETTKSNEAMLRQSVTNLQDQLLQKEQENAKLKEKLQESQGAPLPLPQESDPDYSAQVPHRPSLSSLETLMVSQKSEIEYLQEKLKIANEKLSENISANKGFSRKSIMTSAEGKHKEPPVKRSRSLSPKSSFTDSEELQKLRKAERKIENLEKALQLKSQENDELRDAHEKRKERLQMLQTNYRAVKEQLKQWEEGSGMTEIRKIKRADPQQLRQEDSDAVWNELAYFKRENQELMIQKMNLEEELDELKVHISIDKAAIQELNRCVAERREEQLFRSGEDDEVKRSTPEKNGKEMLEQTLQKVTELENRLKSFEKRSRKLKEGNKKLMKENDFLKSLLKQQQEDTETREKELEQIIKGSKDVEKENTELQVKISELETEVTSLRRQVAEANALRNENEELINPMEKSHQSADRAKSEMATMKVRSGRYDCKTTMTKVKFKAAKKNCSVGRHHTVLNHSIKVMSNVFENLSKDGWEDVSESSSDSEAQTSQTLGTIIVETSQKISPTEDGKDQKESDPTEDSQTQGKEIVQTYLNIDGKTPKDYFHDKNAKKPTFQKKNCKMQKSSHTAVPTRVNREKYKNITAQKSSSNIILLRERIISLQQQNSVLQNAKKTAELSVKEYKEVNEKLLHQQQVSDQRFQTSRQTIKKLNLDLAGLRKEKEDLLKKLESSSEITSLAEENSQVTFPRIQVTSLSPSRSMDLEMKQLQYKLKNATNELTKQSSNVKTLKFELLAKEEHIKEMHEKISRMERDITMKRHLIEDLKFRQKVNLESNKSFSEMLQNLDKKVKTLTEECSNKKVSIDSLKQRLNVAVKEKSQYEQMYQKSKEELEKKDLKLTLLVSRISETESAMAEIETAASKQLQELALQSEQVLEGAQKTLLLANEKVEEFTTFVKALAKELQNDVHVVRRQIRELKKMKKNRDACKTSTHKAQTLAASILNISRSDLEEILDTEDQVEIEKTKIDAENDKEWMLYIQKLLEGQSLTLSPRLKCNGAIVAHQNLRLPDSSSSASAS

B1: GFP-RABIN8 (protein, UniProt Q96QF0-2 1-460)
chain: MANDPLEGFHEVNLASPTSPDLLGVYESGTQEQTTSPSVIYRPHPSALSSVPIQANALDVSELPTQPVYSSPRRLNCAEISSISFHVTDPAPCSTSGVTAGLTKLTTRKDNYNAEREFLQGATITEACDGSDDIFGLSTDSLSRLRSPSVLEVREKGYERLKEELAKAQRELKLKDEECERLSKVRDQLGQELEELTASLFEEAHKMVREANIKQATAEKQLKEAQGKIDVLQAEVAALKTLVLSSSPTSPTQEPLPGGKTPFKKGHTRNKSTSSAMSGSHQDLSVIQPIVKDCKEADLSLYNEFRLWKDEPTMDRTCPFLDKIYQEDIFPCLTFSKSELASAVLEAVENNTLSIEPVGLQPIRFVKASAVECGGPKKCALTGQSKSCKHRIKLGDSSNYYYISPFCRYRITSVCNFFTYIRYIQQGLVKQQDVDQMFWEVMQLRKEMSLAKLGYFKEEL
B2: GFP-KIFC3 (protein, UniProt Q9BVG8 1-833)
chain: MVPSRRTWNLGATPSLRGLWRVGRAPEPEPGMARPAPAPASPAARPFPHTGPGRLRTGRGKDTPVCGDEDSSARSAARPALAQCRALSVDWAGPGSPHGLYLTLQVEHLKEKLISQAQEVSRLRSELGGTDLEKHRDLLMVENERLRQEMRRCEAELQELRTKPAGPCPGCEHSQESAQLRDKLSQLQLEMAESKGMLSELNLEVQQKTDRLAEVELRLKDCLAEKAQEEERLSRRLRDSHETIASLRAQSPPVKYVIKTVEVESSKTKQALSESQARNQHLQEQVAMQRQVLKEMEQQLQSSHQLTARLRAQIAMYESELERAHGQMLEEMQSLEEDKNRAIEEAFARAQVEMKAVHENLAGVRTNLLTLQPALRTLTNDYNGLKRQVRGFPLLLQEALRSVKAEIGQAIEEVNSNNQELLRKYRRELQLRKKCHNELVRLKGNIRVIARVRPVTKEDGEGPEATNAVTFDADDDSIIHLLHKGKPVSFELDKVFSPQASQQDVFQEVQALVTSCIDGFNVCIFAYGQTGAGKTYTMEGTAENPGINQRALQLLFSEVQEKASDWEYTITVSAAEIYNEVLRDLLGKEPQEKLEIRLCPDGSGQLYVPGLTEFQVQSVDDINKVFEFGHTNRTTEFTNLNEHSSRSHALLIVTVRGVDCSTGLRTTGKLNLVDLAGSERVGKSGAEGSRLREAQHINKSLSALGDVIAALRSRQGHVPFRNSKLTYLLQDSLSGDSKTLMVVQVSPVEKNTSETLYSLKFAERVRSVELGPGLRRAELGSWSSQEHLEWEPACQTPQPSARAHSAPSSGTSSRPGSIRRKLQPSGKSRPLPV

Biological target: MYC-CENTLEIN (human (from HeLa cDNA)) (UniProt Q9NXG0)
Assay: co-IP; HEK293T co-transfected with MYC-CENTLEIN (or its deletion) and a GFP-tagged plasmid for 48 h; anti-MYC immunoprecipitation, blot with anti-GFP and anti-MYC; ELB buffer (50 mM HEPES pH 7.4, 250 mM NaCl, 0.1% NP-40), 4°C

Row | Binder | binding
1 | B1 | binds
2 | B2 | binds

These are yes or no findings as the source states them, for the method shown. Binding seen in cells or lysates may run through a third protein. Binding calls can cover weak binding; strength is not graded here. Where a sequence is shown, tags or fusion partners need not be part of it.
